A negative result means that nothing was seen under these conditions.

From article PMC4059961 come the findings set out here.

The series deals with SUMO::TaWRKY53 (Triticum aestivum L. cv. Gamtoos-R). Kind of series: EMSA. As to conditions: Probe EMSA: 10 mM Tris, 50 mM KCl, 1 mM DTT, pH 7.5, 20 min, room temperature; 1-kb EMSA: 10 mM Tris, 100 mM KCl, 1 mM EDTA, 0.1 mM DTT, 5% glycerol, 0.01 mg/mL BSA; recombinant protein; protein details: N-terminal 6xHis-SUMO; label: biotin.

On to “AGCCTCACGTTTCGTCCTGATTGCAAGTTGTTGACTTAAATTTGACTTGTCTCGGAACAAAACAATAACCTGCAGTCCGT (double strand) [chitinase-2 promoter probe]”, for which the binding result is recorded as “no binding”.
